Data from patent US20230157998A1, “Methods of Inhibiting SARS-CoV-2 Replication and Treating Corona Virus Disease 2019” (Pfizer Inc., priority 2020, published 2023).

Tested on: SARS-CoV-2
Experiment: Antiviral activity in HeLa-ACE2 cells (viral protein detection)
Format: cell-based
Settings: Severe acute respiratory syndrome coronavirus 2, compound alone

CCC(CC)COC(=O)[C@H](C)N[P@](=O)(OC[C@H]1O[C@@](C#N)(c2ccc3c(N)ncnn23)[C@H](O)[C@@H]1O)Oc1ccccc1 [remdesivir, reference compound]
EC50: 0.0739 µM
